# The list shows a part of the results.
# B1: Erv41-EDTA (Saccharomyces cerevisiae), Q04651 (protein)
# chain: MKFLVNVALVFMVVYISYIYAAAPEHHHHHHDYDIPTTENLYFQGAMGYIDQQYVVDSQVRDTVQINMDIYVNTKCDWLQINVRDQTMDRKLVLEELQLEEMPFFIPYDTKVNDINEIITPELDEILGEAIPAEFREKLDTRSFFDESDPNKAHLPEFNGCHVFGSIPVNRVSGELQITAKSLGYVASRKAPLEELKFNHVINEFSFGDFYPYIDNPLDNTAQFNQDEPLTTYVYYTSVVPTLFKKLGAEVDTNQYSVNDYRYLYKDVAAKGDKMPGIFFKYNFEPLSIVVSDVRL
# Legend:
# Assay in all cases: glycan array binding signal (z-score within array); higher = stronger binding
# Settings in all cases: glycan notation: IUPAC condensed, linker removed
# Fuc(a1-2)Gal = biological target: Fuc(a1-2)Gal
# Outline: (§1)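 From the Consortium for Functional Glycomics database, 3228 arrays were curated, keeping only those whose protein sequence was available. Binding is given as a within-array Z-score averaged across arrays sharing a protein sequence and across linkers. Negative Z-scores can be read as non-binding.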
# Fuc(a1-2)Gal(b1-3)GalNAc = biological target: Fuc(a1-2)Gal(b1-3)GalNAc
# Outline: as §1
# [1] = biological target: Fuc(a1-2)Gal(b1-3)GalNAc(a1-3)[Fuc(a1-2)]Gal(b1-4)Glc
# Outline: as §1
# [2] = biological target: Fuc(a1-2)Gal(b1-3)GalNAc(a1-3)[Fuc(a1-2)]Gal(b1-4)GlcNAc
# Outline: as §1
# [3] = biological target: Fuc(a1-2)Gal(b1-3)GalNAc(b1-3)Gal
# Outline: as §1
# [4] = biological target: Fuc(a1-2)Gal(b1-3)GalNAc(b1-3)Gal(a1-4)Gal(b1-4)Glc
# Outline: as §1
# [5] = biological target: Fuc(a1-2)Gal(b1-3)GalNAc(b1-4)[Neu5Ac(a2-3)]Gal(b1-4)Glc
# Outline: as §1
# Fuc(a1-2)Gal(b1-3)GlcNAc = biological target: Fuc(a1-2)Gal(b1-3)GlcNAc
# Outline: as §1
# [6] = biological target: Fuc(a1-2)Gal(b1-3)GlcNAc(b1-2)Man(a1-3)[Fuc(a1-2)Gal(b1-3)GlcNAc(b1-2)Man(a1-6)]Man(b1-4)GlcNAc(b1-4)GlcNAc
# Outline: as §1
# [7] = biological target: Fuc(a1-2)Gal(b1-3)GlcNAc(b1-2)Man(a1-3)[Fuc(a1-2)Gal(b1-3)GlcNAc(b1-2)Man(a1-6)]Man(b1-4)GlcNAc(b1-4)[Fuc(a1-6)]GlcNAc
# Outline: as §1
# [8] = biological target: Fuc(a1-2)Gal(b1-3)GlcNAc(b1-3)Gal(b1-4)Glc
# Outline: as §1
# [9] = biological target: Fuc(a1-2)Gal(b1-3)GlcNAc(b1-3)GalNAc
# Outline: as §1
# [10] = biological target: Fuc(a1-2)Gal(b1-3)GlcNAc(b1-3)[Fuc(a1-2)Gal(b1-3)GlcNAc(b1-6)]GalNAc
# Outline: as §1
# [11] = biological target: Fuc(a1-2)Gal(b1-3)GlcNAc(b1-3)[Gal(b1-4)GlcNAc(b1-6)]Gal(b1-4)Glc
# Outline: as §1
# [12] = biological target: Fuc(a1-2)Gal(b1-3)GlcNAc(b1-3)[Neu5Ac(a2-6)Gal(b1-4)GlcNAc(b1-6)]Gal(b1-4)Glc
# Outline: as §1
# [13] = biological target: Fuc(a1-2)Gal(b1-3)GlcNAc6S
# Outline: as §1
# [14] = biological target: Fuc(a1-2)Gal(b1-3)[Fuc(a1-4)]GlcNAc
# Outline: as §1
# [15] = biological target: Fuc(a1-2)Gal(b1-3)[Fuc(a1-4)]GlcNAc(b1-2)Man(a1-3)[Fuc(a1-2)Gal(b1-3)[Fuc(a1-4)]GlcNAc(b1-2)Man(a1-3)]Man(b1-4)GlcNAc(b1-4)GlcNAc
# Outline: as §1
# [16] = biological target: Fuc(a1-2)Gal(b1-3)[Fuc(a1-4)]GlcNAc(b1-2)Man(a1-3)[Fuc(a1-2)Gal(b1-3)[Fuc(a1-4)]GlcNAc(b1-2)Man(a1-6)]Man(b1-4)GlcNAc(b1-4)[Fuc(a1-6)]GlcNAc(b1-4)[Fuc(a1-6)]GlcNAc
# Outline: as §1
# [17] = biological target: Fuc(a1-2)Gal(b1-3)[Fuc(a1-4)]GlcNAc(b1-3)[Fuc(a1-3)[Gal(b1-4)]GlcNAc(b1-6)]Gal(b1-4)Glc
# Outline: as §1
# [18] = biological target: Fuc(a1-2)Gal(b1-3)[Fuc(a1-4)]GlcNAc(b1-3)[Gal(b1-4)GlcNAc(b1-6)]Gal(b1-4)Glc
# Outline: as §1
# [19] = biological target: Fuc(a1-2)Gal(b1-4)Fuc(a1-3)]GlcNAc(b1-2)Man(a1-3)[Fuc(a1-2)Gal(b1-4)[Fuc(a1-3)]GlcNAc(b1-2)Man(a1-6)]Man(b1-4)GlcNAc(b1-4)GlcNAc
# Outline: as §1
# Fuc(a1-2)Gal(b1-4)Glc = biological target: Fuc(a1-2)Gal(b1-4)Glc
# Outline: as §1
# Fuc(a1-2)Gal(b1-4)Glc6S = biological target: Fuc(a1-2)Gal(b1-4)Glc6S
# Outline: as §1
# Fuc(a1-2)Gal(b1-4)GlcNAc = biological target: Fuc(a1-2)Gal(b1-4)GlcNAc
# Outline: as §1
# [20] = biological target: Fuc(a1-2)Gal(b1-4)GlcNAc(b1-2)Man
# Outline: as §1
# [21] = biological target: Fuc(a1-2)Gal(b1-4)GlcNAc(b1-2)Man(a1-3)[Fuc(a1-2)Gal(b1-4)GlcNAc(b1-2)Man(a1-6)]Man(b1-4)GlcNAc(b1-4)GlcNAc
# Outline: as §1
# [22] = biological target: Fuc(a1-2)Gal(b1-4)GlcNAc(b1-2)Man(a1-3)[Fuc(a1-2)Gal(b1-4)GlcNAc(b1-2)Man(a1-6)]Man(b1-4)GlcNAc(b1-4)[Fuc(a1-6)]GlcNAc
# Outline: as §1
# [23] = biological target: Fuc(a1-2)Gal(b1-4)GlcNAc(b1-2)[Fuc(a1-2)Gal(b1-4)GlcNAc(b1-4)]Man(a1-3)[Fuc(a1-2)Gal(b1-4)GlcNAc(b1-2)Man(a1-6)]Man(b1-4)GlcNAc(b1-4)GlcNAc
# Outline: as §1
# [24] = biological target: Fuc(a1-2)Gal(b1-4)GlcNAc(b1-3)Gal(b1-4)GlcNAc
# Outline: as §1
binder,measurement,setting,value
B1,glycan array binding signal (z-score),Fuc(a1-2)Gal,-0.921
same,glycan array binding signal (z-score),Fuc(a1-2)Gal(b1-3)GalNAc,-0.47
same,glycan array binding signal (z-score),[1],-0.044
same,glycan array binding signal (z-score),[2],-0.603
same,glycan array binding signal (z-score),[3],-0.593
same,glycan array binding signal (z-score),[4],0.909
same,glycan array binding signal (z-score),[5],-0.192
same,glycan array binding signal (z-score),Fuc(a1-2)Gal(b1-3)GlcNAc,-0.388
same,glycan array binding signal (z-score),[6],0.618
same,glycan array binding signal (z-score),[7],0.202
same,glycan array binding signal (z-score),[8],0.109
same,glycan array binding signal (z-score),[9],-0.786
same,glycan array binding signal (z-score),[10],2.18
same,glycan array binding signal (z-score),[11],-0.334
same,glycan array binding signal (z-score),[12],-1.18
same,glycan array binding signal (z-score),[13],0.584
same,glycan array binding signal (z-score),[14],0.164
same,glycan array binding signal (z-score),[15],0.012
same,glycan array binding signal (z-score),[16],0.182
same,glycan array binding signal (z-score),[17],-0.124
same,glycan array binding signal (z-score),[18],0.105
same,glycan array binding signal (z-score),[19],1.78
same,glycan array binding signal (z-score),Fuc(a1-2)Gal(b1-4)Glc,-0.955
same,glycan array binding signal (z-score),Fuc(a1-2)Gal(b1-4)Glc6S,0.332
same,glycan array binding signal (z-score),Fuc(a1-2)Gal(b1-4)GlcNAc,-0.226
same,glycan array binding signal (z-score),[20],-0.288
same,glycan array binding signal (z-score),[21],0.143
same,glycan array binding signal (z-score),[22],-0.216
same,glycan array binding signal (z-score),[23],0.382
same,glycan array binding signal (z-score),[24],-0.317

# Reprinted at random: two records from the list
binder,measurement,setting,value
B1,glycan array binding signal (z-score),[7],0.202
same,glycan array binding signal (z-score),[23],0.382
